Test results from article PMC6429042.
Results are given in words; binding and its absence hold for the method and conditions named. Some entries that bind do so weakly or less than the wild type. Sequences can lack the tags named with a protein.

Protein sequences, listed by entry. Tags and fused reporters are not part of them. Lines headed by an entry give the natural chain unless they say otherwise; changes in a name come on top.
UniProt P25454: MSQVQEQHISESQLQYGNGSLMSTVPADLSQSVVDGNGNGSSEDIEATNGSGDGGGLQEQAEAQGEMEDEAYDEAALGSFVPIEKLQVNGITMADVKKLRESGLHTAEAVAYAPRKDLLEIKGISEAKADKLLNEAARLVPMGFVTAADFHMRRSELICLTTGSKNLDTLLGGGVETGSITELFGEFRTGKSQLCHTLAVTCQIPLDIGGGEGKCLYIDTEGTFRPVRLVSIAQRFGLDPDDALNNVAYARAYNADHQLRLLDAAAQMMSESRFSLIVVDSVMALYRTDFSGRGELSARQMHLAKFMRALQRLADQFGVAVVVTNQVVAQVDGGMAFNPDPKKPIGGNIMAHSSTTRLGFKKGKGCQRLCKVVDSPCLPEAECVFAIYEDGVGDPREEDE

Biological target: T1, Saccharomyces cerevisiae Rad54, yeast two-hybrid bait (pGBDUC1/RAD54) (S. cerevisiae) (UniProt P32863)
T1 sequence: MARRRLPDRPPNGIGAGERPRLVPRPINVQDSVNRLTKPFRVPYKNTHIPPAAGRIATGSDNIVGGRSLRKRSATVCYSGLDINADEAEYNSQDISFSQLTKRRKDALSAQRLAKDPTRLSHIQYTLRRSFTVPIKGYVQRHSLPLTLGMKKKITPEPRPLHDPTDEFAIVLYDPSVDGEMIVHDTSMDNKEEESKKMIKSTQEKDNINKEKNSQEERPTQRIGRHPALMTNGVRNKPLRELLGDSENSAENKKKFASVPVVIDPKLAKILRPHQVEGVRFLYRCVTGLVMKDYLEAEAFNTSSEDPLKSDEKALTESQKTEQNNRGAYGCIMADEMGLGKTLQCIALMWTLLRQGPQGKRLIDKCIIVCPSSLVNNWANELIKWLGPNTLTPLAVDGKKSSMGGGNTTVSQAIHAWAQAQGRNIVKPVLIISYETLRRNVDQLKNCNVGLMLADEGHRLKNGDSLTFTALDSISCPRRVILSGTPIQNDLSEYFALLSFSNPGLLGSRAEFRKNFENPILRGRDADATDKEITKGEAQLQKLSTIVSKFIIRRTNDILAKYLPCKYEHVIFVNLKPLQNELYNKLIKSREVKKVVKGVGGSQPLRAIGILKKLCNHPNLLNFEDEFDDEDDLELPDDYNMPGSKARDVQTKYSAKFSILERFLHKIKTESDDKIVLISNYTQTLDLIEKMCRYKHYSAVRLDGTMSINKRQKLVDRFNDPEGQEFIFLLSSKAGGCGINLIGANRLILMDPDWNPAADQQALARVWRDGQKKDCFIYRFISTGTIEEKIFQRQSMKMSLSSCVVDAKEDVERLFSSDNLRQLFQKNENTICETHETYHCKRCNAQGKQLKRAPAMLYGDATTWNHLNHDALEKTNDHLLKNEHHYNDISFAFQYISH
Assay: two-hybrid; prey in pGADC1, bait in pGBDUC1, strain pJ694a; serial dilutions spotted on SC-Ura-Leu and SC-Ura-Leu-Ade, 30°C, 3 to 4 days

Substance: Saccharomyces cerevisiae Rad51, wild type, yeast two-hybrid fusions (pGADC1/RAD51 prey and pGBDUC1/RAD51 bait) (from UniProt P25454 1-400)
- binding: binds

Substance: Saccharomyces cerevisiae Rad51 E108L, yeast two-hybrid fusions (pGADC1/E108L-rad51 prey and pGBDUC1/E108L-rad51 bait) (from UniProt P25454 1-400)
- binding: binds
